# Results as given in publication doi:10.1101/2021.03.09.434456 (bioRxiv, 2021).
# These are yes or no findings as the source states them, for the method shown.
# Legend:
# [1] = molecular target: mouse Kirrel2 D1 Q101A (mouse) (UniProt Q7TSU7); assay: SEC
# [2] = molecular target: mouse Kirrel3 Q128A ectodomain (mouse) (UniProt Q8BR86); assay: SEC-MALS
Binder,binding [1],binding [2]
"mouse Kirrel2 D1 Q101A (domain or fragment, UniProt Q7TSU7 21-119) PHFLQQPEDMVVLLGEEARLPCALGAYRGLVQWTKDGLALGGERDLPGWSRYWISGNSASGQHDLHIKPVELEDEASYECAASQAGLRSRPAQLHVMVP",no binding,
"mouse Kirrel3 Q128A ectodomain (domain or fragment, UniProt Q8BR86 22-535) LQKRGCCLVLGYMAKDKFRRMNEGQVYSFSQQPQDQVVVSGQPVTLLCAIPEYDGFVLWIKDGLALGVGRDLSSYPQYLVVGNHLSGEHHLKILRAELQDDAVYECAAIQAAIRSRPARLTVLVPPDDPIILGGPVISLRAGDPLNLTCHADNAKPAASIIWLRKGEVINGATYSKTLLRDGKRESIVSTLFISPGDVENGQSIVCRATNKAIPGGKETSVTIDIQHPPLVNLSVEPQPVLEDNIVTFHCSAKANPAVTQYRWAKRGHIIKEASGELYRTTVDYTYFSEPVSCEVTNALGSTNLSRTVDVYFGPRMTSEPQSLLVDLGSDAVFSCAWIGNPSLTIVWMKRGSGVVLSNEKTLTLKSVRQEDAGKYVCRAVVPRVGAGEREVTLTVNGPPIISSTQTQHALHGEKGQIKCFIRSTPPPDRIAWSWKENVLESGTSGRYTVETVNTEEGVISTLTISNIVRADFQTIYNCTAWNSFGSDTEIIRLKEQGSEMKSGAGLEAESVPMA",,no binding
